This assay can be described thus: qHTS Assay for Lipid Storage Modulators in Drosophila S3 Cells.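 On cell number change: cells counted by Cell Tracker Red CMTPX staining in the red channel.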 The settings on record: BODIPY lipid droplet fluorescence, 18-24 h; for cell number change: measured here: cell count max response, cells fed with added oleic acid. The method in brief: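 Drosophila S3 cells loaded with oleic acid (400 uM, as added) and compounds at several concentrations; lipid droplets imaged by 488-nm laser-scanning cytometry, 500–530 nm intensity and object ratio to cell channel. Percent activity normalized to 20 uM Triacsin C.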
Background: qHTS replaces the single test concentration by a dilution series.

[1] abbreviates: measured here: lipid fluorescence (Fed channel) AC50, cells fed with added oleic acid.
The mark [2] stands for this setting: measured here: cell number channel AC50, cells fed with added oleic acid.

The source of these data is PubChem BioAssay AID2685 (National Center for Advancing Translational Sciences (NCATS), 2010).

The other results are listed elsewhere or left out. Shown are side measurements of this screen, not its main read-out; they come without a call. The list favours compounds with an active or inconclusive main result. Potencies come from curve fits of mixed quality, noted in brackets.

By AC50 is commonly meant the midpoint of the concentration-response curve, whichever way the signal moves. Read a low AC50 as activity at low concentration. With `C=CCN(CC(=O)Nc1c(C)cccc1CC)C(=O)SCCC`, the cell number change turned out to be 6.93%. In addition, under setting [1], the AC50 was 0.731 µM [rising, single point]. `COc1cc(/C=N/NC(=O)Nc2ccccc2)ccc1OCCOc1ccccc1C`: the cell number change is -43.6%. Further, the AC50 under setting [2] is 0.164 µM [falling, full curve, poor fit]. In addition, the AC50 under setting [1] is 3.66 µM [rising, partial curve]. For the compound `COC(=O)c1ccc(NC(=O)CS(=O)(=O)c2ccccc2)cc1`, the cell number change was -7.94%. Besides, under setting [1], the AC50 is 29.1 µM [falling, single point]. As to `O=C(NCCCN1CCCC1=O)c1cccc(S(=O)(=O)NCc2ccccc2)c1`, the cell number change is -13.1%. For the same compound, under setting [1], the half-maximal activity concentration (AC50) was 7.31 µM [falling, partial curve]. For `COc1ccccc1-n1ccnc(SCC(=O)NCc2ccccc2)c1=O`, the AC50 under setting [1] was 29.1 µM [falling, single point]. Consider `CCOC(=O)c1c(-c2ccco2)csc1N`, for which the cell number change was -31.9%. Under setting [2], the AC50 is 0.92 µM [falling, full curve, poor fit].

With `Cc1ccc(N(C)S(=O)(=O)c2ccc3c(c2)NC(=O)C(C)S3)cc1` (stereo not drawn), the cell number change was determined as 2.36%. Besides, the AC50 under setting [1] was 29.1 µM [rising, single point]. As to `O=C(CCn1c(=O)c2sccc2n(CC(=O)OCc2ccccc2)c1=O)NCc1ccccc1`, the cell number change is 3.4%. Also, the AC50 under setting [2] is 0.326 µM [rising, full curve]. Further, the AC50 under setting [1] was 0.291 µM [rising, partial curve, poor fit]. As for `COc1cc(C(=O)N2C[C@H]3CC[C@H]2C3)ccc1OC1CCN(C(C)=O)CC1`, the cell number change stood at 19.3%. Further, the AC50 under setting [1] is 29.1 µM [rising, single point].

In the case of `COc1ccc(N/N=C(/C)c2cnnc(-c3ccccc3)n2)cc1`, the cell number change was determined as 23.3%. The AC50 under setting [1] was 1.84 µM [rising, partial curve]. Take `CCn1cc(C(=O)N(C)c2ccc(OC)cc2)c2cc(OC)c(OC)cc2c1=O`: the cell number change is -19.8%. For the same compound, the concentration at half-maximal activity (AC50) under setting [2] is 4.11 µM [falling, single point]. With `Clc1ccc(OCCCc2nc(-c3cccnc3)no2)c(Cl)c1`, under setting [1], the AC50 is 9.2 µM [falling, partial curve]. Consider `C/C(=N\NC(=O)c1cccc([N+](=O)[O-])c1)c1cccnc1`, for which the cell number change is 29%. For the same compound, the AC50 under setting [1] was 0.82 µM [falling, full curve, poor fit]. Turning to `Cc1cccc(N2C(=O)CC(N3CCN(c4ccc(Cl)cc4)CC3)C2=O)c1` (stereo not drawn), the cell number change is 2.64%.

As for `CCCC(CCC)=NNc1ccc(S(=O)(=O)Nc2ccccc2OC)cc1[N+](=O)[O-]`, the cell number change is -18%. For `COc1ccc(NC(C)C(=O)Nc2cc(C(F)(F)F)ccc2N2CCOCC2)c(OC)c1` (stereo not drawn), the cell number change is -33.3%. Further, under setting [2], the half-maximal activity concentration (AC50) is 0.92 µM [falling, full curve, poor fit]. Turning to `O=c1[nH][nH]cc1C=Nc1ccc(Cl)cc1`, the cell number change stood at 31.7%. The AC50 under setting [1] is 5.8 µM [falling, partial curve]. Turning to `COc1ccc([N+](=O)[O-])cc1C1NN=C(c2cccc3ccccc23)S1` (stereo not drawn), the cell number change turned out to be 64.5%. Besides, the AC50 under setting [2] is 1.16 µM [rising, full curve]. The AC50 under setting [1] was 2.91 µM [rising, full curve, poor fit]. For the compound `COCCn1c(SCc2cccc([N+](=O)[O-])c2)nc2ccccc2c1=O`, the cell number change was 19.1%. Regarding `O=C(NCc1cccnc1)c1ccc(NC(=O)c2ccc(Br)cc2)cc1`, the cell number change is -0.451%. Also, the AC50 under setting [1] is 6.51 µM [rising, single point]. Turning to `CCOc1ccccc1NC(=O)c1ccc2nc[nH]c2c1`, the cell number change is -6.96%. Also, under setting [1], the AC50 is 6.51 µM [rising, partial curve, poor fit].

`CCCCN1C2=C(C(=O)CC(C)(C)C2)C(c2ccccc2)C2=C1c1ccccc1C2=O` (stereo not drawn): the AC50 under setting [2] was 6.51 µM [rising, single point]. In the case of `CCOC(=O)c1c(C)n(C)c2ccc(OC)c(NC(=O)CN3CCC4(CC3)OCCO4)c12`, the cell number change came out at 0.245%. Also, under setting [1], the AC50 was 2.59 µM [rising, single point]. In the case of `O=C(CSc1nnc(CNc2ccc(F)cc2)n1Cc1ccco1)N1CCCC1`, the cell number change was 7.83%. Moreover, the concentration at half-maximal activity (AC50) under setting [1] was 20.6 µM [rising, single point]. As to `Cn1c(-[n+]2c(-c3ccccc3)cc(-c3ccccc3)cc2-c2ccccc2)nc2cc([N+](=O)[O-])ccc21`, the cell number change is -57.7%. Moreover, the AC50 under setting [2] is 16.4 µM [falling, single point]. Besides, the half-maximal activity concentration (AC50) under setting [1] was 16.4 µM [falling, single point]. As for `CC(=O)Nc1c(-c2cc(=O)oc3cc(C)ccc23)oc2ccccc12`, the cell number change amounted to 66.7%. In addition, the AC50 under setting [2] was 8.2 µM [rising, partial curve].

As to `Cc1cccc(C)c1NC1=NCCCCC1`, the cell number change is 48.5%. Take `COc1ccc(Br)cc1C(=O)CCC(=O)OCC(=O)Nc1cc(C(N)=O)cc(C(N)=O)c1`: the cell number change was found to be 10.5%. For the compound `Cc1c(NC(=O)c2cccc(F)c2)c(=O)n(-c2ccccc2)n1C`, the cell number change was -31.1%. In addition, the AC50 under setting [2] was 32.6 µM [falling, single point]. In addition, the AC50 under setting [1] is 14.6 µM [rising, partial curve]. For `COC(=O)c1c(NC(=O)/C=C/C(=O)O)sc(Cc2ccccc2)c1C`, the cell number change was -35.5%. Moreover, the AC50 under setting [2] is 0.116 µM [falling, full curve, poor fit]. In the case of `NC(=O)NC(=O)CSc1nc2sc(-c3ccccc3)cc2c(=O)n1-c1ccccc1`, the cell number change came out at 32.2%. Besides, the AC50 under setting [1] is 16.4 µM [rising, single point]. `O=C(O)Cn1cc(CN2CCOCC2)c2ccccc21`: the cell number change was determined as 19.1%. On to `COc1ccc(Nc2nc(OC)nc(N3CCOCC3)n2)cc1`, for which the AC50 under setting [1] was 0.082 µM [rising, full curve, poor fit]. For `Cc1cc(C)c(C)c(OCCOCCN2CCOCC2)c1`, the cell number change worked out at 2.21%. Moreover, the AC50 under setting [2] is 2.31 µM [falling, partial curve, poor fit]. Besides, the AC50 under setting [1] was 6.51 µM [falling, single point]. Take `COc1ccc(N2CCN(C(=O)c3ccc(C)c(Cl)c3)CC2)cc1`: the cell number change was -11.7%. Further, the AC50 under setting [1] was 0.082 µM [falling, full curve, poor fit]. Take `CCC(=O)c1c[nH]c(C(=O)NCCCN2CCOCC2)c1`: the cell number change is -106%. In addition, the AC50 under setting [2] is 25.9 µM [falling, partial curve, poor fit]. In addition, the AC50 under setting [1] was 0.651 µM [falling, single point]. With `O=C(Nc1cccnc1)c1cccc(S(=O)(=O)Nc2cccc(Cl)c2)c1`, the cell number change is -4.72%. The AC50 under setting [1] is 29.1 µM [falling, single point]. As for `CN(C(=O)COC(=O)/C=C/c1ccc(C(F)(F)F)cc1)c1c(N)n(Cc2ccccc2)c(=O)[nH]c1=O`, the cell number change was -46%. In addition, the concentration at half-maximal activity (AC50) under setting [2] was 13 µM [falling, partial curve]. For the same compound, under setting [1], the AC50 was 0.517 µM [falling, full curve, poor fit]. Consider `CCCc1nnc(NC(=O)C2CCCO2)s1` (stereo not drawn), for which the cell number change was -27.9%. Moreover, the AC50 under setting [2] is 1.03 µM [falling, single point]. Besides, the AC50 under setting [1] was 1.16 µM [falling, partial curve, poor fit]. With `COC(=O)[C@@H](Cc1ccccc1)NC(=O)[C@H]1CCC(=O)N1C(=O)OCc1ccccc1`, the AC50 under setting [1] is 3.66 µM [falling, full curve]. Take `O=C(OCC(=O)N1CCN(c2ccccc2)CC1)C1CCCN1S(=O)(=O)c1ccc(Cl)cc1` (stereo not drawn): the cell number change turned out to be 124%. The AC50 under setting [2] was 20.6 µM [rising, partial curve]. Take `CN(CCC1CCOCC1)C(=O)CC1C(=O)NCCN1Cc1c(F)cccc1Cl` (stereo not drawn): the cell number change was 17.8%. Moreover, the AC50 under setting [1] was 29.1 µM [falling, single point].

Take `CN(C)/C=C1\C=C2C(=O)c3ccccc3N2C1=O`: the cell number change was -96.1%. In addition, the AC50 under setting [2] is 23.1 µM [falling, partial curve]. Also, the AC50 under setting [1] is 4.11 µM [falling, full curve].

On to `Cc1ccc(S(=O)(=O)Nc2ccc(-n3cnnn3)cc2)c(C)c1`, for which, under setting [1], the AC50 is 0.231 µM [falling, full curve]. Consider `N#CC1=C(SCC(=O)c2cc3ccccc3oc2=O)NC(=O)C(C#N)C12CCCC2` (stereo not drawn), for which the concentration at half-maximal activity (AC50) under setting [1] was 1.03 µM [rising, full curve]. For the compound `Cc1occc1C(=O)Nc1cccc([N+](=O)[O-])c1`, the cell number change is 38%. Under setting [2], the AC50 was 8.2 µM [rising, partial curve]. Also, the AC50 under setting [1] is 6.51 µM [rising, single point]. Take `CC(C)c1ccc(S(=O)(=O)N2CCN(C(=O)c3cc([N+](=O)[O-])ccc3N3CCOCC3)CC2)cc1`: the cell number change was -11.4%. For the same compound, the AC50 under setting [1] was 29.1 µM [falling, single point]. With `O=C(CCCOc1ccc(Cl)cc1Cl)Nc1ccncc1`, the cell number change is -10.3%. For the same compound, the AC50 under setting [1] was 0.00517 µM [rising, full curve, poor fit]. As to `Cc1occc1C(=O)NNC(=O)NC12CC3CC(CC(C3)C1)C2`, the cell number change was found to be 2.21%. Further, the concentration at half-maximal activity (AC50) under setting [1] is 1.03 µM [falling, partial curve, poor fit]. Turning to `NC(=S)N/N=C/c1coc2ccc(F)cc2c1=O`, the cell number change was 27.2%. Regarding `Cc1ccc(C(=O)COC(=O)c2ccc(Br)o2)cc1C`, the AC50 under setting [1] is 11.6 µM [rising, single point].

Consider `COc1ccc(CCNC(=O)CSc2nc(O)c(CC(C)C)c(=O)[nH]2)cc1OC`, for which the cell number change was -5.29%. Regarding `O=C(NC1CCS(=O)(=O)C1)C1C2CC3CC(C2)CC1C3` (stereo not drawn), the cell number change is -15.5%. Further, the AC50 under setting [1] is 1.46 µM [falling, full curve].

On to `O=C1SC(Cc2ccccc2)C(=O)N1c1ccccc1` (stereo not drawn), for which the cell number change was found to be 17%. For the same compound, under setting [1], the AC50 was 2.91 µM [rising, partial curve].

As to `CCCCN(CCCC)c1cc(C)nc(-c2ccccc2O)n1`, the cell number change is -34.9%. Further, the half-maximal activity concentration (AC50) under setting [2] is 10.3 µM [falling, partial curve, poor fit]. The AC50 under setting [1] is 0.259 µM [falling, full curve, poor fit].

Consider `O=C(O)c1ccc(OS(=O)(=O)c2ccc(Cl)s2)cc1`, for which the cell number change was -4.29%. The AC50 under setting [1] is 29.1 µM [rising, single point]. For the compound `COc1ccccc1/C=C/C(=O)Nc1cccc(S(=O)(=O)NC2=NCCCCC2)c1`, the cell number change turned out to be 32.9%. For the same compound, the half-maximal activity concentration (AC50) under setting [2] is 0.651 µM [rising, full curve, poor fit]. Moreover, the AC50 under setting [1] is 29.1 µM [rising, partial curve, poor fit]. Turning to `COc1ccc(C(=O)NNC(=O)C2CC=CCC2)cc1` (stereo not drawn), the cell number change was 9.45%. Take `CN(C)S(=O)(=O)c1cccc(NC(=O)COC(=O)CCOc2ccccc2)c1`: the cell number change was -21.9%.
